This is an account of results in article PMC5363040.

This experiment has as its target TEX101 (testis-expressed sequence 101 protein), free soluble form in seminal plasma (human) (UniProt Q9BY14). Kind of experiment: SEC; pooled pre-vasectomy seminal plasma (500 ug total protein) on TSKgel G3000SW, 0.1 M NaH2PO4-Na2HPO4, 0.15 M NaCl, pH 7.0, 1 mL/min; TEX101 in each fraction measured by ELISA with DOC-based treatment; size by molecular weight standards.

These are yes or no findings as the source states them, for the method shown.

B1: TEX101 (testis-expressed sequence 101 protein), free soluble form in seminal plasma (protein, UniProt Q9BY14-1 26-222)
chain: LYCQKGLSMTVEADPANMFNWTTEEVETCDKGALCQETILIIKAGTETAILATKGCIPEGEEAITIVQHSSPPGLIVTSYSNYCEDSFCNDKDSLSQFWEFSETTASTVSTTLHCPTCVALGTCFSAPSLPCPNGTTRCYQGKLEITGGGIESSVEVKGCTAMIGCRLMSGILAVGPMFVREACPHQLLTQPRKTEN
In the case of B1, the binding result was “no binding”.
